What was measured:
[1] = target: T1, human IL-4Rα expressed on cells (human, UniProt P24394 26-825); assay: flow cytometry on TF-1 cells, anti-His-FITC secondary antibody
T1 construct: whole, on cells; also called IL-4Rα on TF-1 cells; cells expressing human IL-4Rα
T1 sequence (looked up): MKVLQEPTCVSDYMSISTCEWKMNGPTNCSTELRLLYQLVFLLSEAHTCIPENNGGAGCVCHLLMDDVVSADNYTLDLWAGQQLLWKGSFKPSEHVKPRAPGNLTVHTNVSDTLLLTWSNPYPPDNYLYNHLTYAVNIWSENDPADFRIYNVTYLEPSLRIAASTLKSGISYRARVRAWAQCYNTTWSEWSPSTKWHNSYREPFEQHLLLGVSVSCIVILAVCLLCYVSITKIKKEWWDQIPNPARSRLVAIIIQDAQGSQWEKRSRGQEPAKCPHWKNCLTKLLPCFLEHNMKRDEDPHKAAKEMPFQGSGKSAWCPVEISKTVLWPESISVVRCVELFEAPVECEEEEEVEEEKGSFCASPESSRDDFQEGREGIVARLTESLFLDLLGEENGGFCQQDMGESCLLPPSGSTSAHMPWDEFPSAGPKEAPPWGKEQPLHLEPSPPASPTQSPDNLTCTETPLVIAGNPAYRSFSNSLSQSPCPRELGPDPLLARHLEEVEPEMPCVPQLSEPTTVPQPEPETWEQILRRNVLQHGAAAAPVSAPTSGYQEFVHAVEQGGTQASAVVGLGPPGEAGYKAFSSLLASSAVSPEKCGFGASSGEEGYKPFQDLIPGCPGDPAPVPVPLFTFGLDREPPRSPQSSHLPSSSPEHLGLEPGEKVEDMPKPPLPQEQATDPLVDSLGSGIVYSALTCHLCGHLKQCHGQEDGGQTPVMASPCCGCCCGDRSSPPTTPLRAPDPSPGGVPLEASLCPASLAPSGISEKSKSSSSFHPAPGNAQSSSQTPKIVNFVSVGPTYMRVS
Experimental: TF-1 and Karpas299 cells in the logarithmic growth phase were harvested and counted, and the cell density was adjusted. The cells were inoculated onto a 96-well round-bottom plate at 1×10⁵ cells/well. […] After the antibodies were washed off with FACS buffer (PBS containing 2% FBS), a fluorescently labeled secondary antibody was added for staining. […] The cells were incubated with the secondary antibodies at 4° C. for 30 min, then washed with FACS buffer twice, and assayed on a flow cytometer (BD, FACS Celesta), and the results were analyzed using FlowJo (FlowJo, LLC) software.

[2] = target: T2, Biotin-labeled human IL-4Rα protein (SinoBiological, CAT #10402-H08H-B) (human, UniProt P24394 26-232, Biotin-labeled (sites not given)); assay: SPR, Biacore 8K, biotinylated hIL-4Rα captured on SA chip, test protein as analyte
T2 construct: Bought reagent, captured on an SA sensor chip; also called hIL-4Rα; human IL-4Rα antigen protein
T2 sequence (looked up): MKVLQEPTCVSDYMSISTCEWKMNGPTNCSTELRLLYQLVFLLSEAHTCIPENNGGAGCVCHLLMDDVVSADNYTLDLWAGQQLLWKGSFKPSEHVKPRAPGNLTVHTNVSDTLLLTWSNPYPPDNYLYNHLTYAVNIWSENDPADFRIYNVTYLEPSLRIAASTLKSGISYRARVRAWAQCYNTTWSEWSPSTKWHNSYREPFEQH
Experimental: HBS-EP+buffer solution (10 mM HEPES, 150 mM NaCl, 3 mM EDTA, 0.05% surfactant P20) was used as the mobile phase. Each test protein was serially diluted 2-fold with HBS-EP+buffer solution and then injected as an analyte. The flow rate was set to 30 μL/min. […] Analysis was performed using Biacore 8K evaluation software (Cytiva), and data on the affinities of the test proteins were obtained.

B1: AZD1402-TAG (designed binder)
chain: ASDEEIQDVSGTWYLKAMTVDSRCPRAVYNSVTPMTLTTLEGGNLEAKFTAQRKGRWQKYKLVLEKTDEPGKYTASGGRHVAYIIRSHVKDHYIFHSEGLCPGQPVPGVWLVGRDPKNNLEALEDFEKAAGARGLSTESILIPRQSETSSPGSDHHHHHH
[1]
  EC50: 0.0124 nM
[2]
  Kd: 0.0213 nM
  koff: 0.000102 s⁻¹
  kon: 4.77e+06 M⁻¹ s⁻¹

From patent US20250152722A1 (SHANGHAI SHENGDI PHARMACEUTICAL, published 2025)
